Paper PMC7661526, “Antibiofilm effects of N,O-acetals derived from 2-amino-1,4-naphthoquinone are associated with downregulation of important global virulence regulators in methicillin-resistant Staphylococcus aureus” (Scientific Reports, 2020)

Assay: Hemocompatibility assay
Conditions: human, pH 7.4
Experimental: Erythrocytes were collected from three human volunteers in a citrate tube and washed three times (3×) with PBS (pH 7.4). All derivatives were incubated with the PBS-erythrocyte suspension for 3 h at 37 °C. The hemolysis with the release of hemoglobin was quantified by the spectrophotometric reading of the supernatant at 545 nm. Hemolysis less than 10% represented hemocompatibility and non-toxicity against erythrocyte membranes. For the positive control, the human erythrocytes were lysed with 1% (v/v) Triton X-100. The negative control was performed with 1% (v/v) DMSO only (final concentration). […] All methods were carried out in accordance with relevant guidelines and regulations. In addition, informed consent was obtained from all volunteers. Three independent experiments were performed in triplicate.

O=C(O)c1cn(C2CC2)c2cc(N3CCNCC3)c(F)cc2c1=O [Ciprofloxacin, ciprofloxacin, reference compound]
hemolysis at 3 h: 2.4 ± 0.6%
